Percent effect of library compounds

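Whole-parasite assay of Trypanosoma brucei over 72 hours; the read-out is not stated. Tested at 30 µM. The record gives no direction; compounds that gave an IC50 in retests scored well above the rest, so higher reads as stronger inhibition. Values scatter widely below zero; nearly all retest evidence comes from the higher of the two concentrations used. Of about 64,000 compounds tested this way, about 940 (1.5%) reached 50% or more in at least one test.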

The filed quantity is “Percent Effect” (%). The record does not define 0% and 100%; most values in the screen are far below 50% and negative numbers occur (in some assays of this library far below -100). This is an unselected part of the compounds tested.

With O=C(CN1CCC(c2ccccc2)C1)NC(=O)NCC(F)(F)F (stereo unspecified) the screen gave -19.85%.
With O=C(NC[C@@H]1CCCO1)c1cccnc1N1CCCC1c1ccccc1 (stereo partly specified) the screen gave 5.782%.
With Cc1noc(C)c1CN1CCn2cc(CNC(=O)C3CCC3)nc2C1.O=C(O)C(F)(F)F the screen gave -10.31%.
With O=C1CC(c2ccc(C(=O)O)cc2)c2ncn(-c3cccnc3)c2N1 (stereo unspecified) the screen gave -33%.
With Cn1cc(CNC2CCCOc3c(Cl)cccc32)cn1 (stereo unspecified) the screen gave 5.458%.
With Cc1cc(NCCNS(=O)(=O)c2cccc(Cl)c2)nc(C)n1 the screen gave -38.08%.
With CCN(CC)C(=O)CSc1ncc[nH]1 the screen gave -10.24%.
With Cc1cc2c(cc1CNC(Cc1cccs1)c1nccs1)OCO2.Cl (stereo unspecified) the screen gave -1.441%.
With CCC[C@H]1CN(S(=O)(=O)c2ccc(Cl)cc2)C[C@@H]1NC(C)=O the screen gave -50.4%.
With O=C(O)Cn1ccc(=O)c2cc(Cl)ccc21 the screen gave -16.45%.
With O=C(CCc1cncc(F)c1)NS(=O)(=O)c1ccc(F)cc1F the screen gave 4.736%.
With Cc1nn(C)c2ncc(CN3CCN(Cc4ccco4)CC3)cc12 the screen gave -22.56%.
With CN1CC(NC(=O)Cc2csc(C(C)(C)C)n2)CCC1=O (stereo unspecified) the screen gave -19.79%.
With Cc1cnn(CC2CCCN2C(=O)Cn2nc(C)c(Cl)c2C)c1 (stereo unspecified) the screen gave -5.295%.
With CC(OCC1CC1)C(=O)NCc1cccc(CN2CCCC2=O)c1 (stereo unspecified) the screen gave -16.26%.
With CCN1CCCC(O)(CN(C)Cc2ccccc2F)C1 (stereo unspecified) the screen gave -25.51%.
With CC(OCC1CC1)C(=O)NCc1ccc(Cn2ccnc2)cc1 (stereo unspecified) the screen gave -7.514%.
With CC(=O)c1c(C)nn(CC(=O)N2Cc3cnc(CC(C)C)nc3C2)c1C the screen gave -25.7%.
With CCNC(=O)CN1CCCC(c2ccc(C(=O)O)cc2)C1 (stereo unspecified) the screen gave -83.62%.
With CC(=O)N1CCC2(CC1)C(=O)N(CC1CCN(C)CC1)c1ccccc12.O=C(O)C(F)(F)F the screen gave -5.968%.
With Cc1cc(C(F)(F)F)nc(CNc2nc(C)nc3c2cnn3C)n1 the screen gave 17.45%.
With O=C(NCc1cc[nH]n1)N1CCN(c2ncccn2)CC1 the screen gave -17.3%.
With CN(C)c1cc(C2CCCN(C(=O)Cn3cc(Cl)cn3)C2)ccn1 (stereo unspecified) the screen gave -6.342%.
With Cc1cccc(NC(=O)[C@@H]2CCCN2Cc2ccc(C#N)cc2F)n1 the screen gave 18.49%.
With CC(C)c1noc(CN2CCN(C(=O)c3cccc(F)c3)CC2)n1 the screen gave -0.3443%.
With CNC(=O)c1cccc(Nc2cnn(C)c2)c1 the screen gave -11.17%.
With NC(=O)C1CCCN1CCCc1ccc(Cl)cc1 (stereo unspecified) the screen gave -59.52%.
With COCCCN(Cc1ccncc1)C(=O)C1COc2ccccc2C1 (stereo unspecified) the screen gave -84.85%.
With CN1CC(c2ccccc2)CC2(CCN(C(=O)c3cccnn3)CC2)C1 (stereo unspecified) the screen gave 3.549%.
With CN(C)c1nccc(NCc2cc(-c3cccs3)n[nH]2)n1 the screen gave -4.49%.
With Cc1cc(C)n(CC(C)NC2CCN(Cc3cccc(O)c3)CC2)n1 (stereo unspecified) the screen gave 7.827%.
With O=C(O)C(F)(F)F.[H][C@@]12CCN(c3cnccn3)C[C@]1([H])CN(C(=O)CC(C)C)C2 the screen gave -10.22%.
With COc1ccc(COCC(O)CNC(=O)c2ccncc2)cc1 (stereo unspecified) the screen gave 7.641%.
With CC(C)(C)c1cnc(CN(Cc2cccnc2)CC2CCCO2)o1 (stereo unspecified) the screen gave -14.25%.
With CC1CCN(c2cc(NC(=O)C3CC3)ncn2)CC1 the screen gave 71.79%.
With CC(C)n1ncc2c1NC(=O)CC21C(=O)Nc2c(Cl)cc(Cl)cc21 (stereo unspecified) the screen gave 37.45%.
With O=C(C1CC1)N1CCc2[nH]cnc2C12CCN(C1CCOCC1)CC2 the screen gave -57.23%.
With CS(=O)(=O)CCNC(=O)Nc1sc2ccccc2c1Cl the screen gave -157.9%.
With O=S(=O)(CCCc1ccccc1)Cc1nnnn1C1CC1 the screen gave -4.166%.
With CCCn1ncc(C(=O)N(C)Cc2cc(C3CC3)[nH]n2)c1C the screen gave -16.69%.
With O=C(NCCc1coc(-c2ccccc2)n1)NC1CC1 the screen gave 100%.
With O=c1c2cccnc2ccn1Cc1nccn1C1CC1 the screen gave -0.07453%.

For reference, 2 entries once more:

With O=C(NCCc1coc(-c2ccccc2)n1)NC1CC1 the screen gave 100%.
With O=C(O)Cn1ccc(=O)c2cc(Cl)ccc21 the screen gave -16.45%.

Data taken from ChEMBL document CHEMBL3988442, “University of Dundee, Small-Polar-MMV Screening Library” (2021).